Laboratory results: PubChem BioAssay AID1224830 (NIAID, 2016)
In all, the deposit lists about 18,000 reagents; this is a part drawn at random. In the full data, about 2,900 (16%) were called active. 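Calls are made per well; low scores hint the gene aids the LPS response, high scores that it dampens it.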 Repeated entries: four replicate wells of each siRNA pool. No sequences are given here.

- Assay: 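Host factors that control LPS-induced TNF expression in human macrophages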 (primary screen)
- Cells: human THP-1 monocytic leukaemia cells, TNF dual-luciferase reporter clone, PMA-differentiated to macrophage-like cells
- Reagents: siRNA pool against human genes, 50 nM
- Duration: LPS for 4 h, given about 3 days after siRNA transfection
- Treatment: bacterial LPS (TLR4 ligand), 10 ng/ml
- Measured: 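TNF firefly reporter luminescence divided by renilla, normalised to the plate median, then turned into a robust z-score for each replicate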
- Reading the numbers: TNF reporter robust z-score: higher = stronger TNF reporter response to LPS
- Call rule: 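Each well counts as active if its z-score is over 2.8 or under -1.5; controls are left without a call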

no.	gene	TNF reporter robust z-score	activity call
1	HMGB3 (high mobility group box 3)	0.43	inactive
2	HMGB3 (high mobility group box 3)	0.48	inactive
3	HMGB3 (high mobility group box 3)	1.39	inactive
4	HMGB3 (high mobility group box 3)	1.78	inactive
5	NHLH2 (nescient helix-loop-helix 2)	-1.42	inactive
6	NHLH2 (nescient helix-loop-helix 2)	-1.58	active
7	NHLH2 (nescient helix-loop-helix 2)	-1.45	inactive
8	KRTAP21-2 (keratin associated protein 21-2)	-0.55	inactive
9	KRTAP21-2 (keratin associated protein 21-2)	-0.52	inactive
10	KRTAP21-2 (keratin associated protein 21-2)	-1.54	active
11	BICDL1 (BICD family like cargo adaptor 1)	-0.21	inactive
12	BICDL1 (BICD family like cargo adaptor 1)	-0.1	inactive
13	BICDL1 (BICD family like cargo adaptor 1)	0.86	inactive
14	BICDL1 (BICD family like cargo adaptor 1)	-0.63	inactive
15	SPANXN3 (SPANX family member N3)	-0.83	inactive
16	SPANXN3 (SPANX family member N3)	-0.49	inactive
17	SPANXN3 (SPANX family member N3)	0.47	inactive
18	SPANXN3 (SPANX family member N3)	1.27	inactive
19	SOCS6 (suppressor of cytokine signaling 6)	2.05	inactive
20	SOCS6 (suppressor of cytokine signaling 6)	2.38	inactive
21	SOCS6 (suppressor of cytokine signaling 6)	2.37	inactive
22	SOCS6 (suppressor of cytokine signaling 6)	-0.81	inactive
23	ALPL (alkaline phosphatase, biomineralization associated)	0.96	inactive
24	ALPL (alkaline phosphatase, biomineralization associated)	2.35	inactive
25	ALPL (alkaline phosphatase, biomineralization associated)	0.97	inactive
26	ALPL (alkaline phosphatase, biomineralization associated)	2.49	inactive
27	ENTPD1 (ectonucleoside triphosphate diphosphohydrolase 1)	0.87	inactive
28	ENTPD1 (ectonucleoside triphosphate diphosphohydrolase 1)	1.9	inactive
29	ENTPD1 (ectonucleoside triphosphate diphosphohydrolase 1)	0.43	inactive
30	ENTPD1 (ectonucleoside triphosphate diphosphohydrolase 1)	1.39	inactive
31	MLH3 (mutL homolog 3)	1.42	inactive
32	MLH3 (mutL homolog 3)	0.65	inactive
33	MLH3 (mutL homolog 3)	-0.27	inactive
34	MLH3 (mutL homolog 3)	0.47	inactive
35	MRGPRD (MAS related GPR family member D)	0.64	inactive
36	MRGPRD (MAS related GPR family member D)	0.78	inactive
37	MRGPRD (MAS related GPR family member D)	0.17	inactive
38	MRGPRD (MAS related GPR family member D)	0.6	inactive
39	OSTM1 (osteoclastogenesis associated transmembrane protein 1)	-0.06	inactive
40	OSTM1 (osteoclastogenesis associated transmembrane protein 1)	0.05	inactive
41	OSTM1 (osteoclastogenesis associated transmembrane protein 1)	0.33	inactive
42	OSTM1 (osteoclastogenesis associated transmembrane protein 1)	0.77	inactive
43	GJA8 (gap junction protein alpha 8)	-1.43	inactive
44	GJA8 (gap junction protein alpha 8)	-1.11	inactive
45	GJA8 (gap junction protein alpha 8)	-1.32	inactive
46	GJA8 (gap junction protein alpha 8)	-1.34	inactive
47	SLC25A41	3.43	active
48	SLC25A41	3.11	active
49	SLC25A41	1.42	inactive
50	SLC25A41	2.46	inactive
51	TMEM237 (transmembrane protein 237)	-0.65	inactive
52	TMEM237 (transmembrane protein 237)	0.14	inactive
53	TMEM237 (transmembrane protein 237)	-0.07	inactive
54	TMEM237 (transmembrane protein 237)	1.09	inactive
55	ZPR1 (ZPR1 zinc finger)	-0.76	inactive
56	ZPR1 (ZPR1 zinc finger)	-0.84	inactive
57	ZPR1 (ZPR1 zinc finger)	0.01	inactive
58	ZPR1 (ZPR1 zinc finger)	0.03	inactive

The list goes on, starting with the last 16 of the part before.
no.	gene	TNF reporter robust z-score	activity call
43	GJA8 (gap junction protein alpha 8)	-1.43	inactive
44	GJA8 (gap junction protein alpha 8)	-1.11	inactive
45	GJA8 (gap junction protein alpha 8)	-1.32	inactive
46	GJA8 (gap junction protein alpha 8)	-1.34	inactive
47	SLC25A41	3.43	active
48	SLC25A41	3.11	active
49	SLC25A41	1.42	inactive
50	SLC25A41	2.46	inactive
51	TMEM237 (transmembrane protein 237)	-0.65	inactive
52	TMEM237 (transmembrane protein 237)	0.14	inactive
53	TMEM237 (transmembrane protein 237)	-0.07	inactive
54	TMEM237 (transmembrane protein 237)	1.09	inactive
55	ZPR1 (ZPR1 zinc finger)	-0.76	inactive
56	ZPR1 (ZPR1 zinc finger)	-0.84	inactive
57	ZPR1 (ZPR1 zinc finger)	0.01	inactive
58	ZPR1 (ZPR1 zinc finger)	0.03	inactive
59	ZNF224 (zinc finger protein 224)	0.16	inactive
60	ZNF224 (zinc finger protein 224)	-0.34	inactive
61	ZNF224 (zinc finger protein 224)	-0.51	inactive
62	ZNF224 (zinc finger protein 224)	-0.16	inactive
63	TBC1D20 (TBC1 domain family member 20)	-0.7	inactive
64	TBC1D20 (TBC1 domain family member 20)	-0.91	inactive
65	TBC1D20 (TBC1 domain family member 20)	-0.83	inactive
66	TBC1D20 (TBC1 domain family member 20)	-0.64	inactive
67	TAF15 (TATA-box binding protein associated factor 15)	-1.5	inactive
68	TAF15 (TATA-box binding protein associated factor 15)	-0.89	inactive
69	TAF15 (TATA-box binding protein associated factor 15)	-0.93	inactive
70	TAF15 (TATA-box binding protein associated factor 15)	0.55	inactive
71	GPR153 (G protein-coupled receptor 153)	-0.43	inactive
72	GPR153 (G protein-coupled receptor 153)	1.79	inactive
73	GPR153 (G protein-coupled receptor 153)	-0.24	inactive
74	GPR153 (G protein-coupled receptor 153)	0.95	inactive
75	TMCO2 (transmembrane and coiled-coil domains 2)	-0.89	inactive
76	TMCO2 (transmembrane and coiled-coil domains 2)	-0.35	inactive
77	TMCO2 (transmembrane and coiled-coil domains 2)	0.96	inactive
78	TMCO2 (transmembrane and coiled-coil domains 2)	-0.27	inactive
79	MACIR (macrophage immunometabolism regulator)	1.55	inactive
80	MACIR (macrophage immunometabolism regulator)	1.42	inactive
81	MACIR (macrophage immunometabolism regulator)	0.46	inactive
82	MACIR (macrophage immunometabolism regulator)	0.99	inactive
83	ZCCHC8 (zinc finger CCHC-type containing 8)	0.45	inactive
84	ZCCHC8 (zinc finger CCHC-type containing 8)	0.71	inactive
85	ZCCHC8 (zinc finger CCHC-type containing 8)	0.84	inactive
86	ZCCHC8 (zinc finger CCHC-type containing 8)	0.76	inactive
87	C14orf181 (retired record)	0.37	inactive
88	C14orf181 (retired record)	-1.14	inactive
89	C14orf181 (retired record)	-0.69	inactive
90	C14orf181 (retired record)	1	inactive
91	ADAM32 (ADAM metallopeptidase domain 32)	0.05	inactive
92	ADAM32 (ADAM metallopeptidase domain 32)	0.77	inactive
93	ADAM32 (ADAM metallopeptidase domain 32)	-0.06	inactive
94	ADAM32 (ADAM metallopeptidase domain 32)	0.58	inactive
95	LAMP3 (lysosome associated membrane protein 3)	-1.08	inactive
96	LAMP3 (lysosome associated membrane protein 3)	-0.84	inactive
97	LAMP3 (lysosome associated membrane protein 3)	-1.15	inactive
98	LAMP3 (lysosome associated membrane protein 3)	-0.49	inactive
99	CRX (cone-rod homeobox)	-1.04	inactive
100	CRX (cone-rod homeobox)	-0.05	inactive
101	CRX (cone-rod homeobox)	-0.9	inactive
102	CRX (cone-rod homeobox)	-1.17	inactive
103	ZACN (zinc activated ion channel)	-0.33	inactive
104	ZACN (zinc activated ion channel)	-0.14	inactive
105	ZACN (zinc activated ion channel)	-0.08	inactive
106	ZACN (zinc activated ion channel)	0.99	inactive
107	CA5B (carbonic anhydrase 5B)	0.17	inactive
108	CA5B (carbonic anhydrase 5B)	-0.06	inactive
109	CA5B (carbonic anhydrase 5B)	-0.2	inactive
110	PCDHGB7 (protocadherin gamma subfamily B, 7)	-1.72	active
111	PCDHGB7 (protocadherin gamma subfamily B, 7)	0.36	inactive
112	PCDHGB7 (protocadherin gamma subfamily B, 7)	-0.84	inactive
113	PCDHGB7 (protocadherin gamma subfamily B, 7)	-1.06	inactive
